Data on 40 molecules can be found in PubChem BioAssay AID2685 (National Center for Advancing Translational Sciences (NCATS), 2010).

The nature of this assay: qHTS Assay for Lipid Storage Modulators in Drosophila S3 Cells.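 On cell number change: cells counted by Cell Tracker Red CMTPX staining in the red channel.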 The settings on record: BODIPY lipid droplet fluorescence, 18-24 h; for cell number change: measured here: cell count max response, cells fed with added oleic acid. In short, it runs like this: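 Laser-scanning cytometry quantifies lipid droplet accumulation (500–530 nm total intensity; droplet/cell object ratio) in oleic acid-fed (400 uM added) Drosophila S3 cells treated with a concentration series. 20 uM Triacsin C defined 100% inhibition.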

Where [1] appears, read: measured here: lipid fluorescence (Fed channel) AC50, cells fed with added oleic acid.
The mark [2] stands for this setting: measured here: cell number channel AC50, cells fed with added oleic acid.

Some of the results follow. These are further read-outs of the screen, such as a control signal, another cell line or another target. No call is given for them. The list favours compounds with an active or inconclusive main result. The note in brackets gives the kind of curve behind each potency; many fits are weak.

For the molecule `COC(=O)c1sc(-c2ccc(Cl)cc2)cc1N`, the cell number change is -7.4%. Also, the concentration at half-maximal activity (AC50) under setting [1] was 1.3 µM [rising, partial curve, poor fit].

On to `CC(C)(C)c1ccc(C(=O)NCCOc2ccccc2F)cc1`, for which the cell number change worked out at 2.7%. For the same molecule, the AC50 under setting [1] was 29.1 µM [falling, single point].

Consider `Cc1ccc(C)c(C(C)NC(=O)c2ccccc2Br)c1` (stereo unspecified), for which the cell number change is 0.437%. Also, the AC50 under setting [1] is 2.91 µM [rising, single point].

Take `Cc1cc(S(=O)(=O)NCC2CC2)c(Cl)cc1Cl`: the cell number change was -36.8%. The AC50 under setting [2] is 18.4 µM [falling, single point].

On to `O=C(O)c1ccc(-c2nc3scc(-c4ccccc4)c3c(=O)[nH]2)cc1`, for which, under setting [1], the half-maximal activity concentration (AC50) was 5.8 µM [falling, single point].

Take `O=C(COC(=O)c1ccc(CO)cc1)NCc1cccs1`: the cell number change was -3.34%. In addition, the AC50 under setting [1] was 0.731 µM [rising, full curve].

Turning to `O=[N+]([O-])c1ccc(/C=N/n2c(-c3ccccc3)n[nH]c2=S)cc1`, the cell number change is -21.8%. In addition, the AC50 under setting [1] is 11.6 µM [falling, partial curve, poor fit].

For `C/C(=N/NC(=O)c1cccc(N2CCCC2=O)c1)c1ccc(Br)cc1`, the cell number change came to 12.2%.

Take `Cc1ccc(C(C)C)c(OCc2nn(CC(=O)c3ccc(OC(F)F)cc3)c3[n+]2CCCCC3)c1`: the cell number change was -15.4%.

As for `CC1CC(C)CN(S(=O)(=O)c2cc(C(=O)O)c(Cl)s2)C1` (stereo unspecified), under setting [1], the AC50 is 0.0164 µM [falling, full curve, poor fit].

For `CCOC(=O)N/N=C\c1sccc1C`, the cell number change came to 15.4%. The half-maximal activity concentration (AC50) under setting [1] was 14.6 µM [rising, partial curve].

Consider `Cc1ccc(NC2=CC(=O)CC(c3ccccc3)C2)cc1` (stereo unspecified), for which the cell number change was found to be 3.05%. In addition, the half-maximal activity concentration (AC50) under setting [1] is 5.17 µM [rising, partial curve].

In the case of `COc1ccc(C2=NOC(C(=O)Nc3ccc(C)cc3)C2)cc1OC` (stereo unspecified), the half-maximal activity concentration (AC50) is, setting by setting: under setting [2], 1.64 µM [rising, partial curve]; under setting [1], 0.0291 µM [rising, full curve, poor fit].

In the case of `COc1cc(NCc2ccccc2O)c2ncccc2c1`, the cell number change was 8.19%. Moreover, under setting [1], the AC50 was 0.58 µM [falling, single point].

In the case of `CC1=C(C)C(=O)N(c2ccccn2)C1=O`, the cell number change is -0.612%.

As for `Cc1ccc(NC(=O)CSc2nnnn2C2CCCC2)cc1S(=O)(=O)N1CCOCC1`, the cell number change was determined as 22.8%. Also, the concentration at half-maximal activity (AC50) under setting [1] was 2.91 µM [rising, full curve].

On to `CCSc1nc(O)c(C2OC(=O)c3c2ccc(OC)c3OC)c(=O)n1-c1ccccc1` (stereo unspecified), for which the cell number change was -51.9%. Further, under setting [2], the AC50 was 8.2 µM [falling, partial curve]. For the same molecule, under setting [1], the concentration at half-maximal activity (AC50) is 7.31 µM [falling, partial curve].

`O=C(CSc1nc(Nc2ccccc2)nc(N2CCOCC2)n1)Nc1ccccc1Cl`: the cell number change was -8.2%. For the same molecule, the half-maximal activity concentration (AC50) under setting [1] was 1.64 µM [rising, partial curve].

`COC(=O)C1C(C(=O)OC)C1(c1ccccc1)c1ccccc1` (stereo unspecified): the cell number change is 24.3%.

`CC(=O)N(c1ccccc1)c1nc(/C=C/C(=O)O)cs1`: the concentration at half-maximal activity (AC50) under setting [2] was 0.00517 µM [falling, full curve, poor fit].

For the molecule `COc1ccc(/C=C/C(=O)NCCC(=O)N2CCCN(C)CC2)cc1`, the cell number change worked out at 8.98%.

On to `Cc1ccc(C(=O)NCCCNC(=O)Cc2ccccc2)cn1`, for which the cell number change came to 10.9%.

Take `COc1ccccc1NC(=O)/C(C#N)=C/c1ccncc1`: the AC50 under setting [1] was 0.92 µM [falling, full curve].

In the case of `CCc1nnc(NC(=O)CCC(=O)N2CCN(C3c4ccccc4-c4ccccc43)CC2)s1`, under setting [1], the AC50 was 8.2 µM [rising, partial curve].

As for `Cc1nnc(SC(C)C(=O)NCC2CCCO2)s1` (stereo unspecified), the cell number change is -6.02%.

As for `CCc1ccccc1NC(=O)Nc1c(C)n(C)n(-c2ccccc2)c1=O`, the cell number change is -1.16%. For the same molecule, the AC50 under setting [1] is 7.31 µM [rising, single point].

Take `Cc1nn(-c2ccccc2)c2nc(N)c(C#N)c(-c3ccc(C(C)(C)C)cc3)c12`: the cell number change worked out at 30.4%. The concentration at half-maximal activity (AC50) under setting [1] was 5.8 µM [falling, single point].

`Cc1cc(C(C)(C)C)oc1C(=O)N(CC(=O)NC1CCCC1)c1c(C)cccc1C`: the cell number change was -75%. For the same molecule, the AC50 under setting [2] is 16.4 µM [falling, single point]. Also, the half-maximal activity concentration (AC50) under setting [1] was 29.1 µM [falling, single point].

For `CCCCNC(=O)c1ccc(NC(=O)CC2SC(N3CCCC3)=NC2=O)cc1` (stereo unspecified), the cell number change turned out to be 2.98%. Besides, the AC50 under setting [1] was 0.00517 µM [falling, full curve, poor fit].

As for `CCN(Cc1ccccc1)C(=O)c1c[nH]c2ccc(S(=O)(=O)N(C)CCC#N)cc2c1=O`, the cell number change worked out at 0.245%. In addition, the AC50 under setting [1] was 0.206 µM [falling, full curve, poor fit].

For `CC(NC(=O)CSC(=S)N(C)C)C12CC3CC(CC(C3)C1)C2` (stereo unspecified), the cell number change is -15.6%. Further, the half-maximal activity concentration (AC50) under setting [1] was 10.3 µM [falling, partial curve].

As to `C/C(=N\NC(=S)NCCc1ccccc1)c1ccc(C#N)cc1`, the cell number change came to 71.3%. Also, the half-maximal activity concentration (AC50) under setting [2] was 29.1 µM [rising, single point]. Also, the half-maximal activity concentration (AC50) under setting [1] is 0.58 µM [rising, single point].

`COc1cccc(OCc2cc(C(=O)N(C)Cc3nccn3C)no2)c1`: under setting [1], the AC50 is 0.13 µM [falling, full curve, poor fit].

On to `O=C(CCOc1ccccc1)Nc1ccc(Cl)c(S(=O)(=O)N2CCOCC2)c1`, for which the cell number change was -30.8%. Moreover, the AC50 under setting [2] was 18.4 µM [falling, single point]. Under setting [1], the AC50 is 2.31 µM [rising, partial curve].

`CC(=O)N1CCN(C2c3cccc4cccc(c34)C2NS(=O)(=O)c2ccccc2)CC1` (stereo unspecified): the cell number change came to 1.01%. Also, the AC50 under setting [1] is 2.31 µM [rising, partial curve].

Turning to `CCOC(=O)c1ccc(NC(=O)CCOc2ccccc2)cc1`, the cell number change turned out to be 109%. Besides, the AC50 under setting [2] was 16.4 µM [rising, partial curve]. Further, the concentration at half-maximal activity (AC50) under setting [1] is 6.51 µM [rising, single point].

For the molecule `CCCCCCN(C(=O)CCCCCN1C(=O)NC(c2ccc(-c3ccccc3)cc2)C(C(=O)OCc2ccccc2)=C1C)C(C(=O)NCCCC)c1ccc(O)cc1` (stereo unspecified), the cell number change is -1.46%. Further, under setting [1], the AC50 was 1.46 µM [rising, partial curve].

Regarding `Cc1cc(C)cc(NC(=O)Nc2cc(-c3ccccc3)nn2C)c1`, the cell number change was -9.29%. For the same molecule, the AC50 under setting [2] was 0.0058 µM [falling, full curve, poor fit].

Take `Cc1ccc(C)c(Cn2nnc3c(=O)[nH]c(C4CCCN(C(=O)c5cccs5)C4)nc32)c1` (stereo unspecified): the cell number change is -4.62%.

With `N#CCCN1CCN(Cc2cc(-c3ccccc3)ccc2O)CC1`, the cell number change was -23.7%. Besides, under setting [1], the AC50 was 4.11 µM [falling, full curve, poor fit].
